Measurements reported in the supplement of paper PMC9744312.
Where “and” joins values, the source holds several entries; their conditions need not be identical. Equal values may be shown once. Where a name gives a salt, the structure may show the parent alone. Some of the results follow. The data scatter; read single values as rough.

Each molecule was assayed on Peyronie's disease tunica albuginea primary fibroblasts (assay: inhibition of TGF-beta1-induced alpha-SMA expression (myofibroblast transformation), relative to TGF-beta1-only and untreated controls; higher = stronger inhibition of myofibroblast transformation). Conditions: 10 µM; TGF-beta1 10 ng/mL; 72 h.

Compound	inhibition of TGF-beta1-induced alpha-SMA expression
C[C@@H](NCCCc1cccc(C(F)(F)F)c1)c1cccc2ccccc12 [Cinacalcet HCl]	25.9%
CC(=O)Nc1cccc(-n2c(=O)n(C3CC3)c(=O)c3c(Nc4ccc(I)cc4F)n(C)c(=O)c(C)c32)c1	-138%
N=C1CCCN1Cc1[nH]c(=O)[nH]c(=O)c1Cl [Tipiracil hydrochloride]	7.79%
Nc1[nH]cnc2ncnc1-2 [Adenine HCl]	80.5%
Nc1[nH]cnc2ncnc1-2 [Adenine sulfate]	9.16%
C[C@@H](O)[C@H]1C(=O)N2C(C(=O)O)=C([C@H]3CCCO3)S[C@H]12 [Faropenem Sodium]	30.3%
OCCN1CCN(CC/C=C2/c3ccccc3Sc3ccc(C(F)(F)F)cc32)CC1 [Flupenthixol dihydrochloride]	74.7%
Cc1cn[nH]c1 [Fomepizole]	32.4%
Cc1ccc(C(=O)c2ccc(CC(=O)O)n2C)cc1 [Tolmetin Sodium]	48.6%
Cc1ccc(C(=O)c2ccc(CC(=O)O)n2C)cc1 [Tolmetin]	76.9%
FC(F)(F)C(Cl)Br (stereo unspecified) [Halothane]	28.2%
O=C(O)CCCCCCCC(=O)O [Azelaic acid]	-27.3%
CC(=O)OCC(=O)[C@@]1(O)CC[C@H]2[C@@H]3CCC4=CC(=O)CC[C@]4(C)[C@@]3(F)[C@@H](O)C[C@@]21C [Fludrocortisone acetate]	54.7%
NS(=O)(=O)c1cc(C2(O)NC(=O)c3ccccc32)ccc1Cl (stereo unspecified) [Chlorthalidone]	19.4%
CC(=O)OCC(=O)[C@@]1(O)CC[C@H]2[C@@H]3CCC4=CC(=O)CC[C@]4(C)[C@H]3[C@@H](O)C[C@@]21C [Hydrocortisone acetate]	48.2%
CC(C)c1c(C(=O)Nc2ccccc2)c(-c2ccccc2)c(-c2ccc(F)cc2)n1CC[C@@H](O)C[C@@H](O)CC(=O)O [Atorvastatin Calcium]	> 100%
Cc1ncc(C[n+]2csc(CCO)c2C)c(N)n1 [Thiamine HCl (Vitamin B1)]	-5.49%
CCN[C@H]1CN(CCCOC)S(=O)(=O)c2sc(S(N)(=O)=O)cc21 [Brinzolamide]	9.15%
CC(=O)Oc1ccccc1C(=O)Nc1ncc([N+](=O)[O-])s1 [Nitazoxanide]	> 100%
CCCCOCCOCCOCc1cc2c(cc1CCC)OCO2 [Piperonyl butoxide]	31.1%
CCN(CC)CCOC(=O)C1(C2CCCCC2)CCCCC1 [Dicyclomine HCl]	7.53%
CCCCC(O)c1ccccc1 (stereo unspecified) [Fenipentol]	17.6%
Nc1c(CC(=O)O)cccc1C(=O)c1ccccc1 [Amfenac Sodium Monohydrate]	30.2%
O=C1c2c(O)cccc2Cc2cccc(O)c21 [Dithranol]	21.7%
Cc1nnc(C(=O)NC(C)(C)c2nc(C(=O)NCc3ccc(F)cc3)c(O)c(=O)n2C)o1 [Raltegravir (MK-0518)]	29.3%
Cc1nnc(C(=O)NC(C)(C)c2nc(C(=O)NCc3ccc(F)cc3)c(O)c(=O)n2C)o1 [Raltegravir potassium]	-9.29%

Compound	inhibition of TGF-beta1-induced alpha-SMA expression
O=C(NC[C@H]1CN(c2ccc(N3CCOCC3=O)cc2)C(=O)O1)c1ccc(Cl)s1 [Rivaroxaban]	7.73%
C[C@@H]1C[C@H]2[C@@H]3C[C@H](F)C4=CC(=O)C=C[C@]4(C)[C@@]3(F)[C@@H](O)C[C@]2(C)[C@@]1(O)C(=O)CO [Flumethasone]	50.9%
O=C(O)c1cn(-c2ccc(F)cc2)c2cc(N3CCNCC3)c(F)cc2c1=O [Sarafloxacin HCl]	2.55%
N[C@@H](CCC(=O)O)C(=O)[O-].[Na+] [L-Glutamic acid monosodium salt]	10.1%
C[N+]1(C)CCC(OC(=O)C(O)(c2ccccc2)C2CCCC2)C1 (stereo unspecified) [Glycopyrrolate]	14.5%
Clc1ccc(CCC(Cn2ccnc2)Sc2c(Cl)cccc2Cl)cc1 (stereo unspecified) [Butoconazole]	-5.84%
Clc1ccc(CCC(Cn2ccnc2)Sc2c(Cl)cccc2Cl)cc1 (stereo unspecified) [Butoconazole nitrate]	5.26%
N#Cc1ccc(C(c2ccc(C#N)cc2)n2cncn2)cc1 [Letrozole]	8.71%
NCc1ccccc1CC(=O)N[C@@H]1C(=O)N2C(C(=O)O)=C(CSc3nnnn3CC(=O)O)CS[C@H]12 [Ceforanide]	33.5%
N=C(NCCCCCCNC(=N)NC(=N)Nc1ccc(Cl)cc1)NC(=N)Nc1ccc(Cl)cc1 [Chlorhexidine]	> 100%
COc1c2occc2cc2ccc(=O)oc12 [Methoxsalen]	12.7%
CN1CCN(C2=Nc3ccccc3Oc3ccc(Cl)cc32)CC1 [Loxapine Succinate]	-8.62%
CCOC(=O)[C@@H](N)Cc1ccc(-c2cc(O[C@H](c3ccc(Cl)cc3-n3ccc(C)n3)C(F)(F)F)nc(N)n2)cc1 [Telotristat Etiprate (LX 1606 Hippurate)]	10%
C1CNCCN1 [Piperazine]	6.1%
Nc1cc(C(Cl)=C(Cl)Cl)c(S(N)(=O)=O)cc1S(N)(=O)=O [Clorsulon]	-1.64%
CC[C@H](C)C(=O)O[C@H]1CCC=C2C=C[C@H](C)[C@H](CC[C@@H]3C[C@@H](O)CC(=O)O3)[C@H]21 [Mevastatin]	> 100%
C[C@H](CCC(=O)O)[C@H]1CC[C@H]2[C@@H]3[C@H](O)C[C@@H]4C[C@H](O)CC[C@]4(C)[C@H]3CC[C@]12C [Chenodeoxycholic Acid]	21%
NNc1nncc2ccccc12 [Hydralazine HCl]	11.8%
CC(=O)OCC(CCn1cnc2cnc(N)nc21)COC(C)=O [Famciclovir]	-9.48%
CN1CCN(CCCN2c3ccccc3Sc3ccc(Cl)cc32)CC1 [Prochlorperazine dimaleate salt]	59.3%
CN1CCN(CCCN2c3ccccc3Sc3ccc(Cl)cc32)CC1 [Prochlorperazine Dimaleate]	92.3%
Cc1nc(=O)c2cc(CN(C)c3ccc(C(=O)N[C@@H](CCC(=O)O)C(=O)O)s3)ccc2[nH]1 [Raltitrexed]	42%
CC(/C=C1\SC(=S)N(CC(=O)O)C1=O)=C\c1ccccc1 [Epalrestat]	4.15%
CC(=O)[C@]1(O)Cc2c(O)c3c(c(O)c2[C@@H](O[C@H]2C[C@H](N)[C@H](O)[C@H](C)O2)C1)C(=O)c1ccccc1C3=O [Idarubicin HCl]	> 100%
O=c1oc2ccccc2c(O)c1Cc1c(O)c2ccccc2oc1=O [Dicoumarol]	27%
COc1ccc([C@]2(C#N)CC[C@@H](C(=O)O)CC2)cc1OC1CCCC1 [Cilomilast]	41.1%

Shown as labelled records: entries from further up
CCOC(=O)[C@@H](N)Cc1ccc(-c2cc(O[C@H](c3ccc(Cl)cc3-n3ccc(C)n3)C(F)(F)F)nc(N)n2)cc1 [Telotristat Etiprate (LX 1606 Hippurate)]
  inhibition of TGF-beta1-induced alpha-SMA expression: 10%
CC(/C=C1\SC(=S)N(CC(=O)O)C1=O)=C\c1ccccc1 [Epalrestat]
  inhibition of TGF-beta1-induced alpha-SMA expression: 4.15%
COc1ccc([C@]2(C#N)CC[C@@H](C(=O)O)CC2)cc1OC1CCCC1 [Cilomilast]
  inhibition of TGF-beta1-induced alpha-SMA expression: 41.1%

(continued)

Compound	inhibition of TGF-beta1-induced alpha-SMA expression
COCC[n+]1c2c(n(Cc3cnccn3)c1C)C(=O)c1ccccc1C2=O [YM155 (Sepantronium Bromide)]	> 100%
C[C@@H]1CCN(C(=O)CC#N)C[C@@H]1N(C)c1ncnc2[nH]ccc12	-18.1% and -29.3%
O=c1[nH]c(=O)n(C2CCCO2)cc1F (stereo unspecified)	-16.9%
CN(C)c1nc(N(C)C)nc(N(C)C)n1 [Altretamine]	40.2%
CCn1c(=O)c(-c2cc[nH]n2)cc2c(C)nc(N)nc21	> 100%
COc1cc2c(Oc3ccc4[nH]c(C)cc4c3F)ncnc2cc1OCCCN1CCCC1 [Cediranib (AZD2171)]	86%
O=C(O)c1cc(-c2ccccc2)nc2ccccc12 [Cinchophen]	> 100%
CC(=O)O[C@]1(C(C)=O)CC[C@H]2[C@@H]3C[C@H](C)C4=CC(=O)CC[C@]4(C)[C@H]3CC[C@@]21C [Medroxyprogesterone acetate]	62.8%
C[C@H]1CNCCCN1S(=O)(=O)c1cccc2cncc(F)c12 [Ripasudil (K-115) hydrochloride dihydrate]	92.8%
C[C@H]1C[C@@H]2[C@H]([C@@H](O)C[C@@]3(C)[C@H]2CC[C@]3(O)C(=O)CO)[C@@]2(C)C=CC(=O)C=C12 [Methylprednisolone]	39%
CCCNCC(O)COc1ccccc1C(=O)CCc1ccccc1 (stereo unspecified) [Propafenone HCl]	29.8%
NC(=O)C(c1ccccc1)(c1ccccc1)[C@@H]1CCN(CCc2ccc3c(c2)CCO3)C1 [Darifenacin HBr]	1.62%
COc1ccccc1OCC(O)CN1CCN(CC(=O)Nc2c(C)cccc2C)CC1 (stereo unspecified) [Ranolazine]	10.4%
COc1ccccc1OCC(O)CN1CCN(CC(=O)Nc2c(C)cccc2C)CC1 (stereo unspecified) [Ranolazine 2HCl]	26.6%
CNS(=O)(=O)C[C@H]1CC[C@H](N(C)c2[nH]cnc3nccc2-3)CC1	-146%
COc1cc([C@@H]2c3cc4c(cc3[C@@H](O[C@@H]3O[C@@H]5CO[C@@H](C)O[C@H]5[C@H](O)[C@H]3O)[C@H]3COC(=O)[C@H]23)OCO4)cc(OC)c1O [Etoposide]	-33.1%
COc1ccc(C2CNC(=O)C2)cc1OC1CCCC1 (stereo unspecified) [Rolipram]	53.3%
Cc1c(O)c(=O)ccn1C [Deferiprone]	9.95%
O=S(=O)(O)c1cc(O)ccc1O [Ethamsylate]	5.64%
c1ccc([C@H]2CN3CCSC3=N2)cc1 [Levamisole hydrochloride]	45.8%
CCC(=O)O[C@]1(C(=O)CCl)[C@@H](C)C[C@H]2[C@@H]3CCC4=CC(=O)C=C[C@]4(C)[C@@]3(F)[C@@H](O)C[C@@]21C [Clobetasol propionate]	37.9%
O=C1OCCN1/N=C/c1ccc([N+](=O)[O-])o1 [Furazolidone]	-4.53%
CCOC(=O)[C@H](CCc1ccccc1)N[C@H]1CS[C@H](c2cccs2)CN(CC(=O)O)C1=O [Temocapril HCl]	10.6%
CCCCC(F)(F)[C@@]1(O)CC[C@H]2[C@@H](CC(=O)[C@@H]2CCCCCCC(=O)O)O1 [Lubiprostone]	20%
